This is one part of the list. Shown are side measurements of this screen, not its main read-out; they come without a call. The list favours compounds with an active or inconclusive main result. The note in brackets gives the kind of curve behind each potency; many fits are weak.
Test: qHTS Assay to Find Inhibitors of Chronic Active B-Cell Receptor Signaling
Conditions: ABC-DLBCL IkBa-CBG/CBR reporter, luminescence ratio (green luciferase fused to IkBa over red control in TMD8 lymphoma cells), 4 h
Outline: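 TMD8 human ABC-DLBCL cells with doxycycline-inducible IκBα–green luciferase fusion and unfused red luciferase, in 0.5% FBS medium; compounds up to 46 uM, 4 h at 37C. Green/red luminescence ratio, filter-overlap corrected, fitted to concentration-response curves.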

[1] = measured here: CBR red luminescence, cell number
[2] = measured here: IkBa-CBG green luminescence

Structure (SMILES) | AC50 [1] | AC50 [2]
O=C(c1ccc(Br)o1)N1CCN(c2ncccn2)CC1 | 23.1 µM [rising, single point] | 
O=C(Nc1ccncc1)c1cc2ccccc2cc1O | 4.11 µM [falling, full curve] | 
Cc1ccc(-c2nc(NCc3ccco3)n(C(=O)c3ccco3)n2)cc1 | 2.82 µM [rising, partial curve, poor fit] | 
CCCCCCOC(=O)C[N+](C)(C)CCOC1CC2CCC1(C)C2(C)C (stereo not given) | 14.6 µM [falling, partial curve] | 32.6 µM [rising, partial curve, poor fit]
CN(CC(=O)Nc1ccc(Cl)cc1)CC(=O)Nc1cccc2ccccc12 | 32.6 µM [falling, single point] | 
CCOC(=O)c1ccc(N2CCN(C(=O)c3ccccc3)CC2)c(NC(=O)c2ccco2)c1 | 22.4 µM [falling, single point] | 
O=C(Nc1nc(-c2cc(Cl)sc2Cl)cs1)c1ccccc1 | 32.6 µM [falling, single point] | 
C/C(=N\OCc1cccc(C(=O)O)c1)c1ccc(Cl)cc1 | 1.12 µM [falling, full curve, poor fit] | 
CCCCn1c(NCc2cccs2)nc2ccccc21 | 35.5 µM [falling, single point] | 
COc1cccc(NC(=O)COC(=O)c2c3c(nc4ccccc24)CCC(C)C3)c1 (stereo not given) | 12.6 µM [falling, partial curve, poor fit] | 
COc1ccc(-c2cccc(-c3cc(=O)oc4cc(OC)cc(OC)c34)c2)cc1 | 1.16 µM [rising, full curve, poor fit] | 1.64 µM [falling, full curve]
CC(=O)Nc1cccc(C(=O)N/N=C/c2ccc(C)o2)c1 | 5.62 µM [falling, full curve] | 
O=C(Cc1sc(-c2ccccc2)nc1-c1ccccc1)Nc1ccccc1 | 7.31 µM [rising, partial curve] | 
CCNS(=O)(=O)c1ccc(NC(=O)Nc2cc(C)ccc2OC)cc1 | 35.5 µM [falling, single point] | 
S=C(Nc1ccccc1)N1CCn2cccc2C1c1cccnc1 (stereo not given) | 29.1 µM [falling, single point] | 
CCOc1cc(NC(=S)NCC2CCCO2)c(OCC)cc1NC(=O)c1ccccc1F (stereo not given) | 35.5 µM [falling, single point] | 
Cc1cccc(Nc2nc(-c3ccccc3)c(C(=O)Nc3cccnc3)s2)c1 | 14.6 µM [falling, partial curve, poor fit] | 
Cc1ccccc1Oc1cc(NC(=O)Cn2cnc([N+](=O)[O-])c2)cc([N+](=O)[O-])c1 | 15.8 µM [falling, single point] | 
CCCCc1ccc(NC(=O)CC(C)C)cc1 | 35.5 µM [falling, single point] | 
O=C(Cn1ncc(Cl)c(Cl)c1=O)NC1CCCCC1 | 11.6 µM [falling, partial curve] | 
CCOC(=O)c1ccccc1NC(=O)COC(=O)CCC(=O)N1CCOCC1 | 2.51 µM [falling, full curve] | 

Structure (SMILES) | AC50 [1] | AC50 [2]
CCOC(=O)c1sc(NC(=O)CSc2n[nH]c(CC(C)C)n2)nc1C | 20.6 µM [falling, single point] | 
CCOc1ccc(N2CC(C(=O)Nc3cccc(S(=O)(=O)NC4=NCCC4)c3)CC2=O)cc1 (stereo not given) | 0.794 µM [rising, full curve, poor fit] | 
COc1ccccc1C(=O)N1CCN(Cc2ccc3c(c2)OCO3)CC1 | 16.4 µM [falling, single point] | 
Cc1cccc(N2CCN(C(=O)Cn3cccc3)CC2)c1C | 2.06 µM [rising, partial curve, poor fit] | 
Cc1ccc(N2C(=O)C3C4C=CC(CNC(=S)Nc5ccc(Cl)cc5)(O4)C3C2=O)cc1 (stereo not given) | 18.4 µM [falling, single point] | 
CCOC(=O)NC(=O)/C(C=Nc1ccc(Cl)cc1)=C(\C)O | 7.94 µM [rising, partial curve, poor fit] | 
CCOC(=O)c1c(C)[nH]c(C)c1C(=O)COC(=O)c1c(OC)cccc1OC | 6.51 µM [rising, single point] | 
CC(=O)N=c1cccc(NC(C)=O)n1O | 32.6 µM [falling, single point] | 
O=C1CC(C(=O)Nc2ccc(F)c(Cl)c2)N=C(N2CCCCC2)N1 (stereo not given) | 6.51 µM [falling, single point] | 
CCOc1ccc(CC(=O)N/N=C/c2sccc2C)cc1 | 4.47 µM [rising, single point] | 
CCNC(=S)N(CCc1c(C)[nH]c2ccc(C)cc12)Cc1cccnc1 | 35.5 µM [falling, single point] | 
Cc1ccc(NC(=S)NC2CCSc3ccccc32)cc1C (stereo not given) | 5.62 µM [falling, partial curve] | 
CCOC(=O)c1ccc(NC(=O)C2CCN(C(=O)c3ccc(OC)c(OC)c3)CC2)cc1 | 0.146 µM [rising, full curve] | 
CC1(C)CC(=O)C(N=Nc2ccc(Br)cc2)=C(O)C1 | 35.5 µM [rising, single point] | 
Cc1ccc(OC(C)c2nnc(N)s2)cc1Cl (stereo not given) | 20.6 µM [falling, partial curve, poor fit] | 
C=CCOc1ccc(/C=C/C(=O)Nc2ccc(C(=O)NC)cc2)cc1 | 18.4 µM [rising, partial curve, poor fit] | 
CCCCN(C(=O)CSc1nncn1-c1ccccc1OC)c1c(N)n(Cc2ccccc2)c(=O)[nH]c1=O | 35.5 µM [falling, single point] | 
O=C(Cn1c(-c2cscn2)nc2ccccc21)Nc1ccc2ccccc2c1 | 0.708 µM [falling, partial curve, poor fit] | 
CCOC(=O)C1CCN(C(=O)COC(=O)c2oc3ccc(OC)cc3c2C)CC1 | 29.1 µM [rising, single point] | 
CCn1c(SCc2nc3ccccc3s2)nnc1-c1ccccc1 | 5.8 µM [rising, full curve, poor fit] | 
CC(=O)N1N=C(c2ccc3ccccc3c2)OC12CCCC2 | 31.6 µM [rising, single point] | 

Some of these compounds in order of molar mass, rising:
Structure (SMILES) | AC50 [1] | AC50 [2]
CCCCc1ccc(NC(=O)CC(C)C)cc1 | 35.5 µM [falling, single point] | 
S=C(Nc1ccccc1)N1CCn2cccc2C1c1cccnc1 (stereo not given) | 29.1 µM [falling, single point] | 
CCNC(=S)N(CCc1c(C)[nH]c2ccc(C)cc12)Cc1cccnc1 | 35.5 µM [falling, single point] | 
CCCCN(C(=O)CSc1nncn1-c1ccccc1OC)c1c(N)n(Cc2ccccc2)c(=O)[nH]c1=O | 35.5 µM [falling, single point] | 

Continued.

Structure (SMILES) | AC50 [1] | AC50 [2]
COc1cccc(NC(=O)[C@H](Cc2ccccc2)NC(=O)[C@@H]2Cc3ccccc3CN2)c1 | 8.91 µM [falling, partial curve, poor fit] | 
N#Cc1c(NC(=S)NC(=O)c2ccccc2)sc2c1CCCC2 | 0.206 µM [rising, full curve, poor fit] | 
Cc1cccc(-c2noc(CCCC(=O)NC3CCCCC3)n2)c1 | 4.47 µM [rising, full curve] | 5.62 µM [rising, partial curve, poor fit]
COc1ccc(NC(=O)COC(=O)c2ccc(S(=O)(=O)N3CCCC3)cc2)cc1OC | 2.31 µM [falling, partial curve] | 
O=[N+]([O-])c1cccc(/C([O-])=C(/C(=S)Nc2cccc3ccccc23)[n+]2ccccc2)c1 | 1.64 µM [falling, partial curve, poor fit] | 
CN(C)CCN(C(=O)/C=C/c1cccs1)c1nc2c(F)cc(F)cc2s1 | 20.6 µM [falling, single point] | 
COc1ccc(C)cc1NC(=O)Nc1ccncc1 | 14.1 µM [rising, single point] | 
CCNC(=O)/C(C#N)=C/c1c(N2CCN(C)CC2)nc2c(C)cccn2c1=O | 20 µM [falling, single point] | 
CCS(=O)(=O)c1ccc(C(=O)Nc2ccccc2)c(Cl)c1Cl | 11.2 µM [falling, partial curve, poor fit] | 
C[C@H]1O[C@@H](O[C@H]2CC[C@@]3(C)C(CC[C@]4(C)C3C=C[C@]35OC[C@@]6(CCC(C)(C)C[C@H]63)[C@@H](O)C[C@]54C)[C@]2(C)CO)[C@H](O)[C@@H](O[C@@H]2O[C@H](CO)[C@@H](O)[C@H](O)[C@H]2O)[C@H]1O (stereo not given in full) | 20.6 µM [rising, single point] | 
O=C(c1cccs1)C1C(c2ccc(Br)cc2)NC(=S)NC1(O)C(F)(F)F (stereo not given) | 18.4 µM [falling, partial curve, poor fit] | 
CCOc1ccc(/C=C/c2c([N+](=O)[O-])c(=O)n(C)c(=O)n2C)cc1 | 35.5 µM [falling, single point] | 
CC1CC(C)CN(c2ncc3c(n2)CC(c2ccccc2Cl)CC3=O)C1 (stereo not given) | 1.84 µM [rising, partial curve, poor fit] | 
COc1ccc(-n2c(SCC(=O)Nc3cc(C(=O)O)ccc3C)nc3ccccc3c2=O)cc1Cl | 35.5 µM [falling, single point] | 
Cc1cc(C)cc(NC(=O)Cc2ccc(S(=O)(=O)N3CCCC3)s2)c1 | 0.146 µM [rising, full curve, poor fit] | 
N#CCCN1CCN(S(=O)(=O)c2ccc(S(=O)(=O)NCc3ccccc3)cc2)CC1 | 18.4 µM [rising, single point] | 
O=C(Nc1cccc(Cl)c1)Nc1ccccc1C(=O)O | 0.891 µM [falling, full curve] | 
CC1CCC(NC(=O)Cn2cc3c(n2)CCCC3)CC1 (stereo not given) | 0.517 µM [falling, partial curve, poor fit] | 
COc1ccc([N+](=O)[O-])cc1NC(=O)COC(=O)c1ccccn1 | 5.62 µM [rising, single point] | 
O=C(N/N=C/c1ccccc1F)c1ccccc1OCc1ccccc1 | 2.51 µM [falling, partial curve, poor fit] | 
